Some compounds share one wording; it may come from a single statement. Some ranges recur; such a range may be that of the whole group of compounds.
Columns and labels:
[1] = Durability evaluation of polarizing plate, additive in polarizing plate protective film (Example 1); conditions: additive in protective film: Cellulose acylate, 25 μm, added amount 4.0 per 100 parts by mass of film resin; 410 nm
[2] = Evaluation of light-fast adhesiveness of polarizing plate protective film with hardcoat layer; conditions: additive in protective film: Cellulose acylate, 25 μm, added amount 4.0 per 100 parts by mass of film resin; light 96 hours, 60° C., 50% RH

## Cc1ccc(S(=O)(=O)Oc2c(Cc3ccccc3)c(=O)n(-c3ccccc3)c(=O)n2-c2ccccc2)cc1 [Example compound N]
[1]
  Durability of polarizer: amount of change of orthogonal transmittance (%) 60° C., 95%, 500 hours: A (The amount of change of the orthogonal transmittance before and after the elapse of time was equal to or greater than 0.4% and less than 0.6%.)
  Durability of polarizer: amount of change of orthogonal transmittance (%) 60° C., 95%, 1,000 hours: A+ (The amount of change of the orthogonal transmittance before and after the elapse of time was less than 1.0%.)
  Durability of polarizer: amount of change of orthogonal transmittance (%) 80° C., Dry 500 hours: A (The amount of change of the orthogonal transmittance before and after the elapse of time was equal to or greater than 0.1% and less than 0.3%.)
  Durability of polarizer: amount of change of orthogonal transmittance (%) 80° C., Dry, 1,000 hours: A+ (The amount of change of the orthogonal transmittance before and after the elapse of time was less than 0.5%.)
[2]
  Light-fast adhesiveness: A (The number of cells peeled off among 100 cells was equal to or less than 10.)

## CCO[Si](CCCNC(=O)OCCn1c(=O)[nH]c(OC(=O)OC)c(Cc2ccccc2)c1=O)(OCC)OCC [Example compound AAO]
[1]
  Durability of polarizer: amount of change of orthogonal transmittance (%) 60° C., 95%, 500 hours: A+ (The amount of change of the orthogonal transmittance before and after the elapse of time was less than 0.4%.)
  Durability of polarizer: amount of change of orthogonal transmittance (%) 60° C., 95%, 1,000 hours: A+ (The amount of change of the orthogonal transmittance before and after the elapse of time was less than 1.0%.)
  Durability of polarizer: amount of change of orthogonal transmittance (%) 80° C., Dry 500 hours: A+ (The amount of change of the orthogonal transmittance before and after the elapse of time was less than 0.1%.)
  Durability of polarizer: amount of change of orthogonal transmittance (%) 80° C., Dry, 1,000 hours: A+ (The amount of change of the orthogonal transmittance before and after the elapse of time was less than 0.5%.)
[2]
  Light-fast adhesiveness: A (The number of cells peeled off among 100 cells was equal to or less than 10.)

## CS(=O)(=O)Oc1c(-c2ccccc2)c(=O)n(-c2ccccc2)c(=O)n1-c1ccccc1 [Example compound M]
[1]
  Durability of polarizer: amount of change of orthogonal transmittance (%) 60° C., 95%, 500 hours: A (The amount of change of the orthogonal transmittance before and after the elapse of time was equal to or greater than 0.4% and less than 0.6%.)
  Durability of polarizer: amount of change of orthogonal transmittance (%) 60° C., 95%, 1,000 hours: A+ (The amount of change of the orthogonal transmittance before and after the elapse of time was less than 1.0%.)
  Durability of polarizer: amount of change of orthogonal transmittance (%) 80° C., Dry 500 hours: A (The amount of change of the orthogonal transmittance before and after the elapse of time was equal to or greater than 0.1% and less than 0.3%.)
  Durability of polarizer: amount of change of orthogonal transmittance (%) 80° C., Dry, 1,000 hours: A+ (The amount of change of the orthogonal transmittance before and after the elapse of time was less than 0.5%.)
[2]
  Light-fast adhesiveness: B (The number of cells peeled off among 100 cells was 11 to 20.)

## COC(=O)Oc1[nH]c(=O)n(Cc2ccc(C=O)cc2)c(=O)c1Cc1ccccc1 [Example compound AAD]
[1]
  Durability of polarizer: amount of change of orthogonal transmittance (%) 60° C., 95%, 500 hours: A+ (The amount of change of the orthogonal transmittance before and after the elapse of time was less than 0.4%.)
  Durability of polarizer: amount of change of orthogonal transmittance (%) 60° C., 95%, 1,000 hours: A+ (The amount of change of the orthogonal transmittance before and after the elapse of time was less than 1.0%.)
  Durability of polarizer: amount of change of orthogonal transmittance (%) 80° C., Dry 500 hours: A+ (The amount of change of the orthogonal transmittance before and after the elapse of time was less than 0.1%.)
  Durability of polarizer: amount of change of orthogonal transmittance (%) 80° C., Dry, 1,000 hours: A+ (The amount of change of the orthogonal transmittance before and after the elapse of time was less than 0.5%.)
[2]
  Light-fast adhesiveness: A (The number of cells peeled off among 100 cells was equal to or less than 10.)

## COC(=O)Oc1c(Cc2ccc(B(O)O)cc2)c(=O)n(-c2ccccc2)c(=O)n1Cc1ccccc1 [Example compound AAJ]
[1]
  Durability of polarizer: amount of change of orthogonal transmittance (%) 60° C., 95%, 500 hours: A+ (The amount of change of the orthogonal transmittance before and after the elapse of time was less than 0.4%.)
  Durability of polarizer: amount of change of orthogonal transmittance (%) 60° C., 95%, 1,000 hours: A+ (The amount of change of the orthogonal transmittance before and after the elapse of time was less than 1.0%.)
  Durability of polarizer: amount of change of orthogonal transmittance (%) 80° C., Dry 500 hours: A+ (The amount of change of the orthogonal transmittance before and after the elapse of time was less than 0.1%.)
  Durability of polarizer: amount of change of orthogonal transmittance (%) 80° C., Dry, 1,000 hours: A+ (The amount of change of the orthogonal transmittance before and after the elapse of time was less than 0.5%.)
[2]
  Light-fast adhesiveness: A (The number of cells peeled off among 100 cells was equal to or less than 10.)

## COC(=O)Oc1c(Cc2ccc(C=O)cc2)c(=O)n(-c2ccccc2)c(=O)n1Cc1ccccc1 [Example compound AAA]
[1]
  Durability of polarizer: amount of change of orthogonal transmittance (%) 60° C., 95%, 500 hours: A+ (The amount of change of the orthogonal transmittance before and after the elapse of time was less than 0.4%.)
  Durability of polarizer: amount of change of orthogonal transmittance (%) 60° C., 95%, 1,000 hours: A+ (The amount of change of the orthogonal transmittance before and after the elapse of time was less than 1.0%.)
  Durability of polarizer: amount of change of orthogonal transmittance (%) 80° C., Dry 500 hours: A+ (The amount of change of the orthogonal transmittance before and after the elapse of time was less than 0.1%.)
  Durability of polarizer: amount of change of orthogonal transmittance (%) 80° C., Dry, 1,000 hours: A+ (The amount of change of the orthogonal transmittance before and after the elapse of time was less than 0.5%.)
[2]
  Light-fast adhesiveness: A (The number of cells peeled off among 100 cells was equal to or less than 10.)

## O=C(Oc1c(Cc2ccccc2)c(=O)n(-c2ccccc2)c(=O)n1-c1ccccc1)OC1c2ccccc2-c2ccccc21 [Example compound G]
[1]
  Durability of polarizer: amount of change of orthogonal transmittance (%) 60° C., 95%, 500 hours: A+ (The amount of change of the orthogonal transmittance before and after the elapse of time was less than 0.4%.)
  Durability of polarizer: amount of change of orthogonal transmittance (%) 60° C., 95%, 1,000 hours: A+ (The amount of change of the orthogonal transmittance before and after the elapse of time was less than 1.0%.)
  Durability of polarizer: amount of change of orthogonal transmittance (%) 80° C., Dry 500 hours: A+ (The amount of change of the orthogonal transmittance before and after the elapse of time was less than 0.1%.)
  Durability of polarizer: amount of change of orthogonal transmittance (%) 80° C., Dry, 1,000 hours: A+ (The amount of change of the orthogonal transmittance before and after the elapse of time was less than 0.5%.)
[2]
  Light-fast adhesiveness: A (The number of cells peeled off among 100 cells was equal to or less than 10.)

## O=P(O)(Oc1ccccc1)Oc1ccccc1 [Organic acid 3, reference compound]
[1]
  Durability of polarizer: amount of change of orthogonal transmittance (%) 60° C., 95%, 500 hours: B (The amount of change of the orthogonal transmittance before and after the elapse of time was equal to or greater than 0.6% and less than 0.8%.)
  Durability of polarizer: amount of change of orthogonal transmittance (%) 60° C., 95%, 1,000 hours: B (The amount of change of the orthogonal transmittance before and after the elapse of time was equal to or greater than 1.4% and less than 1.6%.)
  Durability of polarizer: amount of change of orthogonal transmittance (%) 80° C., Dry 500 hours: B (The amount of change of the orthogonal transmittance before and after the elapse of time was equal to or greater than 0.3% and less than 0.5%.)
  Durability of polarizer: amount of change of orthogonal transmittance (%) 80° C., Dry, 1,000 hours: B (The amount of change of the orthogonal transmittance before and after the elapse of time was equal to or greater than 0.8% and less than 1.0%.)
[2]
  Light-fast adhesiveness: B (The number of cells peeled off among 100 cells was 11 to 20.)

## COC(=O)Oc1[nH]c(=O)n(Cc2ccc(C=O)cc2)c(=O)c1C=O [Example compound AAU]
[1]
  Durability of polarizer: amount of change of orthogonal transmittance (%) 60° C., 95%, 500 hours: A+ (The amount of change of the orthogonal transmittance before and after the elapse of time was less than 0.4%.)
  Durability of polarizer: amount of change of orthogonal transmittance (%) 60° C., 95%, 1,000 hours: A+ (The amount of change of the orthogonal transmittance before and after the elapse of time was less than 1.0%.)
  Durability of polarizer: amount of change of orthogonal transmittance (%) 80° C., Dry 500 hours: A+ (The amount of change of the orthogonal transmittance before and after the elapse of time was less than 0.1%.)
  Durability of polarizer: amount of change of orthogonal transmittance (%) 80° C., Dry, 1,000 hours: A+ (The amount of change of the orthogonal transmittance before and after the elapse of time was less than 0.5%.)
[2]
  Light-fast adhesiveness: A (The number of cells peeled off among 100 cells was equal to or less than 10.)

## CCC(C)(C)c1ccc(OCCCC(=O)O)c(C(C)(C)CC)c1 [Organic acid 4, reference compound]
[1]
  Durability of polarizer: amount of change of orthogonal transmittance (%) 60° C., 95%, 500 hours: A (The amount of change of the orthogonal transmittance before and after the elapse of time was equal to or greater than 0.4% and less than 0.6%.)
  Durability of polarizer: amount of change of orthogonal transmittance (%) 60° C., 95%, 1,000 hours: A (The amount of change of the orthogonal transmittance before and after the elapse of time was equal to or greater than 1.0% and less than 1.4%.)
  Durability of polarizer: amount of change of orthogonal transmittance (%) 80° C., Dry 500 hours: A (The amount of change of the orthogonal transmittance before and after the elapse of time was equal to or greater than 0.1% and less than 0.3%.)
  Durability of polarizer: amount of change of orthogonal transmittance (%) 80° C., Dry, 1,000 hours: A (The amount of change of the orthogonal transmittance before and after the elapse of time was equal to or greater than 0.5% and less than 0.8%.)
[2]
  Light-fast adhesiveness: C (The number of cells peeled off among 100 cells was 21 to 30.)

## CC(C)(C)[Si](C)(C)Oc1c(C2CCCCC2)c(=O)n(-c2ccccc2)c(=O)n1-c1ccccc1 [Example compound I]
[1]
  Durability of polarizer: amount of change of orthogonal transmittance (%) 60° C., 95%, 500 hours: A+ (The amount of change of the orthogonal transmittance before and after the elapse of time was less than 0.4%.)
  Durability of polarizer: amount of change of orthogonal transmittance (%) 60° C., 95%, 1,000 hours: A+ (The amount of change of the orthogonal transmittance before and after the elapse of time was less than 1.0%.)
  Durability of polarizer: amount of change of orthogonal transmittance (%) 80° C., Dry 500 hours: A+ (The amount of change of the orthogonal transmittance before and after the elapse of time was less than 0.1%.)
  Durability of polarizer: amount of change of orthogonal transmittance (%) 80° C., Dry, 1,000 hours: A+ (The amount of change of the orthogonal transmittance before and after the elapse of time was less than 0.5%.)
[2]
  Light-fast adhesiveness: A (The number of cells peeled off among 100 cells was equal to or less than 10.)

Reference: patent US20160369115A1, “POLARIZING PLATE COMPOSITION, POLARIZING PLATE PROTECTIVE FILM, POLARIZER, POLARIZING PLATE, LIQUID CRYSTAL DISPLAY DEVICE, AND COMPOUND USED IN THE LIQUID CRYSTAL DISPLAY DEVICE” (FUJIFILM Corporation, priority 2014, published 2016)
